The results in this text go back to article PMC6372799.

Chains of the proteins cited; added tags and fusions are not shown.
UniProt Q9UBF8: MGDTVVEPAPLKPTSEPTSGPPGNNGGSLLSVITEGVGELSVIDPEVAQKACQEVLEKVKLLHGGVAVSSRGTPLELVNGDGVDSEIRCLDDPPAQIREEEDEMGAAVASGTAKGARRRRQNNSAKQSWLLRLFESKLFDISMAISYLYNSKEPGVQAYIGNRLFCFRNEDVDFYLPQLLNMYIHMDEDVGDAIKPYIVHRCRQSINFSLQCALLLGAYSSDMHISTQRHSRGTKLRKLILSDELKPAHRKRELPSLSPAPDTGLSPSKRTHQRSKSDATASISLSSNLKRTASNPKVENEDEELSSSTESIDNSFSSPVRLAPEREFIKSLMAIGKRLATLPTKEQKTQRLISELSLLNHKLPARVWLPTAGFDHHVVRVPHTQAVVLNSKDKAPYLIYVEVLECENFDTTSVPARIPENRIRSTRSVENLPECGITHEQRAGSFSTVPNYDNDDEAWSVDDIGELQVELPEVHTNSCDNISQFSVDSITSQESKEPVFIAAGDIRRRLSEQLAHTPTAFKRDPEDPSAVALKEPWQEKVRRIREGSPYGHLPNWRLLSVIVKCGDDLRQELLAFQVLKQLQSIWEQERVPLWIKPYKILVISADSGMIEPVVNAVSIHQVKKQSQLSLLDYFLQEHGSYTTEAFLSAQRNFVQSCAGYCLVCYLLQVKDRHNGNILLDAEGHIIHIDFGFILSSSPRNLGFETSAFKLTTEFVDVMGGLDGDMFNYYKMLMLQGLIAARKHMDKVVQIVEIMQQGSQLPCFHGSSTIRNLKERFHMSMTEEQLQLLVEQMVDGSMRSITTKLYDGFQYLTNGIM
UniProt Q9H3P7: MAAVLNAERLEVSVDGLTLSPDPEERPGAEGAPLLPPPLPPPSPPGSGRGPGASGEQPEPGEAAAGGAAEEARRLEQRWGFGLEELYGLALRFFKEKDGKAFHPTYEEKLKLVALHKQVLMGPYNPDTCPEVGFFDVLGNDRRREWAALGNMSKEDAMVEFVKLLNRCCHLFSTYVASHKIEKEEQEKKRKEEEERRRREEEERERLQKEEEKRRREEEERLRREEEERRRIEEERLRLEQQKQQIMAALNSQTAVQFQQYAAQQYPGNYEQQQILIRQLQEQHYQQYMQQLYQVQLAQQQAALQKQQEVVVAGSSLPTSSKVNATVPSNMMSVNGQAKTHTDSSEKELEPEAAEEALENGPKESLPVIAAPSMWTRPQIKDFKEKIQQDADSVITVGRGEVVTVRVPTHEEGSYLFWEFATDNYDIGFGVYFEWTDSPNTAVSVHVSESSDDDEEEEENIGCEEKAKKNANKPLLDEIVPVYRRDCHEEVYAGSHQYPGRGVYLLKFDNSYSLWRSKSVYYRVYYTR

No constants are given. Whether binding was seen depends on the method and setting. In cells and extracts the contact can be indirect. Some binding calls cover weakened binding; strength is not graded here.

This experiment has as its target phosphatidylinositol 4-kinase IIIβ (PI4KB), wild type (UniProt Q9UBF8). Description: co-IP; coimmunoprecipitation from cells (Fig. S7); antibodies, bait, cell line and buffer are in Text S1, not shown.

In the case of “acyl-coenzyme A binding domain containing 3 (ACBD3), wild type (from UniProt Q9H3P7 1-528)”, the binding entry is listed as “binds”.
